Measurements: US20210275630A1, “INACTIVATION OF DNA REPAIR AS AN ANTICANCER THERAPY” (Phoremost Limited, priority 2016, published 2021)
For at least one compound, name, drawing or mass did not settle the structure.

Experiments:
[1] = test system: cell lines with or without MLH-1; test: Drug screening of alkylating agents on cell lines with or without MLH-1 (crystal violet staining); type: cell-based, mouse; conditions: MLH-1 KO compared to wt, colorectal and breast cells
[2] = test system: CT26 and MC38 MMR proficient cells; test: Mutational load after Temozolomide treatment (exome analysis); type: cell-based, mouse; conditions: CT26 and MC38 treated with 100 μM to 500 μM Temozolomide for 4 months until resistant populations emerged
CT26 cells = test: Tumour formation of TMZ resistant CT26 cells injected in syngeneic mice; type: in vivo, mouse; conditions: subcutaneous
MC38 cells = test: Tumour formation of TMZ resistant MC38 cells injected in syngeneic mice; type: in vivo, mouse; conditions: MC38 resistant to temozolomide, subcutaneous
MMR status = MMR status of TMZ resistant cells by microsatellite instability assays; type: cell-based, mouse
MLH-1 = MLH-1 expression after temozolomide treatment (western blot); type: cell-based, mouse

Cn1nnc2c(C(N)=O)ncn2c1=O [temozolomide]
Differential susceptibility of MMR proficient versus MMR deficient (MLH-1 KO) cells [1]: preferential sensitivity
Mutational load [2]: increases mutational loads to levels comparable to those achieved by inactivation of MMR
Tumour formation and growth (CT26 cells): readily formed tumours and grew at rates comparable to their parental counterparts
Tumour formation (MC38 cells): did not form tumours
MMR deficiency (microsatellite instability) (MMR status; TMZ resistant CT26 cells): but not CT26 cells displayed MMR deficiency
MMR deficiency (microsatellite instability) (MMR status; TMZ resistant MC38 cells): displayed MMR deficiency
MLH-1 expression level (MLH-1; CT26 after temozolomide treatment): no differences
MLH-1 expression level (MLH-1; MC38 after temozolomide treatment): strongly reduced
MLH-1 expression level (MLH-1; MC38 after temozolomide treatment, listed as TMZ): dramatically reduced
